Measurements reported in article PMC10517005, “A conserved membrane protein negatively regulates Mce1 complexes in mycobacteria” (Nature Communications, 2023).
These are yes or no findings as the source states them, for the method shown. Binding seen in cells or lysates may run through a third protein. Binding can be weak; no strength is given. For part of these data: Where a sequence is shown, tags or fusion partners need not be part of it. Blank lines part the entries; values can stand above or below the binder they belong to.

Sequences of proteins named here, by UniProt entry; tags and fusion partners are left off. A change or cut given only in a name is not applied to a line headed by its entry.
UniProt A0QNR1: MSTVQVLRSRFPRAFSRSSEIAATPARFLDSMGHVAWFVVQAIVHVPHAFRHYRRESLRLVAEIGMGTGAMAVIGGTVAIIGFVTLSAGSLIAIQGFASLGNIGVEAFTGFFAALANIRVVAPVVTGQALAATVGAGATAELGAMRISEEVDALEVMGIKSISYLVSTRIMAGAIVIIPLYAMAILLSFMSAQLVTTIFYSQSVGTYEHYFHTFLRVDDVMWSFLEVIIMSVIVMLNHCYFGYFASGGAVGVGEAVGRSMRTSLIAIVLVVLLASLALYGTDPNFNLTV

Experiments:
[1] = target: His6-YrbE1B (M. smegmatis); assay: pull-down; YrbE1A, MceG or FLAG-tagged MceG, and His6-YrbE1B (WT or GGSSG) co-expressed in E. coli BL21(λDE3) with or without FLAG-tagged MSMEG_0959 (WT or AGG3P); DDM membrane extract on TALON resin; SDS-PAGE, α-His/FLAG immunoblot (Fig. 4a, b)
[2] = target: His6-YrbE1B (M. smegmatis); assay: pull-down; His6-YrbE1A or His6-YrbE1B co-expressed in E. coli BL21(λDE3) with FLAG-tagged MceG (with or without the other YrbE1 protein) or with MSMEG_0959 alone; DDM membrane extract on TALON resin; SDS-PAGE, α-His/FLAG immunoblot (Fig. 3c, Supplementary Fig. 6a, b)
[3] = target: His6-YrbE1B (M. smegmatis) (UniProt A0QNR1); assay: pull-down

binding [1]: binds
binding [2]: binds
B1: MSMEG_0959-FLAG (protein, UniProt A0QR24 1-164)
chain: MSGVPDASGAAPAGEVLFYEQGASWAWLLSGPIAGVGMAILQRTGGYGYDLWIPLIFLVLVSGFIAIQIKAARIHTSVELTRETLRQGTEIISIDEIVDIYPEASGSEVPKWQSARALGELTGVPRGRTGIGLKLTGKRVAQAWARRHRTLRAALQQLVEERTP

binding [3]: binds
B2: MSMEG_0959 (over-expressed in M. smegmatis) (protein, UniProt A0QR24 1-164)
chain: B1 chain
